SMILES strings stand for the structures. This is one part of the list. The main result of the screen is listed elsewhere. These columns were measured beside it and carry no call. The list favours compounds with an active or inconclusive main result. Words in brackets tell the shape of the fitted curve; partial curves, single points and poor fits give uncertain potencies.

This test in a line: qHTS Assay for Modulators of Lamin A Splicing. The note with it: HeLa LMNA splicing GFP/RFP minigene ratio, 48 h. In a few lines: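 S3 HeLa cells stably expressing lamin A-EGFP splicing minigene plus DsRed2, 600 cells/well, 48 h compound exposure at 37C. Laser-scanning cytometry; analysed as GFP (500-530 nm)/RFP (575-640 nm) total intensity ratio; 0.5% DMSO vehicle.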
A general note: qHTS replaces the single test concentration by a dilution series.

Where [1] appears, read: measured here: GFP splicing reporter channel.
The mark [2] stands for this setting: measured here: RFP viability control channel.

`CC12CCC(O)CC1=CCC1C2CCC2(C)C1CCC21CCC(=O)O1` (stereo not given): the AC50 under setting [1] is 11.2 µM [rising, partial curve].

Turning to `Cc1nn(C(=O)c2cccs2)c(N)c1-c1ccccc1`, the AC50 under setting [2] is 35.5 µM [rising, single point]. Turning to `COc1cc2c(C(=O)N3CCN(c4ccccc4C)CC3)c(C)oc2cc1Br`, the AC50 runs as follows: under setting [1], 7.94 µM [rising, partial curve]; under setting [2], 14.1 µM [rising, partial curve].

In the case of `Nc1c(S(=O)(=O)c2cccc(Cl)c2)c2nc3ccccc3nc2n1/N=C/c1ccc(O)c(O)c1`, the AC50 under setting [1] was 35.5 µM [falling, single point]. As for `CC(=O)c1ccc(NC(=O)N2CCN(c3ccc(C)cc3)C(C)C2)cc1` (stereo not given), the AC50 is 0.891 µM [falling, full curve] under setting [1] and 1.26 µM [falling, full curve, poor fit] under setting [2]. Turning to `Clc1cccc(Nc2ncnc3c2nc2n3CCCCC2)c1`, the AC50 under setting [1] was 10 µM [falling, partial curve].

As for `Cc1c(S(=O)(=O)N2CCc3ccccc3C2)c(=O)n(C)c(=O)n1C`, under setting [2], the half-maximal activity concentration (AC50) is 7.08 µM [rising, partial curve].

As to `Cc1ccc(NC(=O)N2CC=C(c3c[nH]c4ccccc34)CC2)cc1Cl`, the AC50 was 17.8 µM [rising, single point] under setting [1] and 14.1 µM [rising, single point] under setting [2]. On to `CCOCCn1ccc2c(OCC(=O)Nc3cc(C)cc(C)c3)cccc2c1=O`, for which, under setting [2], the concentration at half-maximal activity (AC50) is 4.47 µM [falling, full curve].

Take `Cc1nn(C)c(C)c1CNC(=O)c1nn2c(c1Cl)NC(c1cccs1)CC2C(F)(F)F` (stereo not given): the half-maximal activity concentration (AC50) under setting [2] was 10 µM [rising, partial curve, poor fit]. For `COc1ccc(CC(=O)Nc2nccs2)cc1OC`, the concentration at half-maximal activity (AC50) is 11.2 µM [rising, single point] under setting [1] and 15.8 µM [rising, single point] under setting [2]. On to `N#C/C(=C/c1cccc([N+](=O)[O-])c1)c1nnc2n1CCCCC2`, for which the concentration at half-maximal activity (AC50) under setting [2] is 12.6 µM [rising, partial curve]. On the same count and under the same terms, then `COc1ccc(NC(=O)c2ccc(C#CC(C)(C)O)cc2)cc1`, with 20 µM [rising, single point]; and `Cc1cccc(C(=O)Nc2ccc(OCc3cc(=O)n4ccc(C)cc4n3)cc2)c1`, with 0.0251 µM [falling, full curve, poor fit]. As for `COC(=O)c1ccc(CSc2nnc(SCc3ccc(C(=O)OC)o3)s2)o1`, the AC50 under setting [1] is 0.0398 µM [rising, full curve, poor fit].

Regarding `COC(=O)c1ccccc1NC(=O)NCc1ccc2c(c1)CCN2C(=O)c1ccccc1`, the AC50 is, setting by setting: under setting [1], 0.282 µM [falling, full curve, poor fit]; under setting [2], 0.158 µM [falling, full curve, poor fit]. With `C/C(=C\C(=O)N1CCc2ccccc21)C(=O)O`, the AC50 was 2 µM [rising, full curve] under setting [1] and 2.51 µM [rising, full curve] under setting [2]. With `CN1CCN(c2nc3cc(C(F)(F)F)ccc3n3cccc23)CC1`, the AC50 reads like this: under setting [1], 5.62 µM [falling, partial curve, poor fit]; under setting [2], 14.1 µM [falling, single point].

With `O=C(COc1ccccc1)Nc1cccc(-c2nc3cc4ccccc4cc3[nH]2)c1`, the half-maximal activity concentration (AC50) is, setting by setting: under setting [1], 25.1 µM [falling, single point]; under setting [2], 35.5 µM [falling, single point]. As for `COc1cccc(N2CCN(CC(=O)c3c(C)[nH]c4ccccc34)CC2)c1`, under setting [2], the concentration at half-maximal activity (AC50) was 15.8 µM [rising, partial curve].

For the compound `CC1CCN(C(c2ccc(N(C)C)cc2)c2nnnn2Cc2ccc(F)cc2)CC1` (stereo not given), the AC50 under setting [1] was 14.1 µM [rising, single point]. On to `COc1ccc(N(C(C)C(=O)N2CCC(Cc3ccccc3)CC2)S(C)(=O)=O)cc1` (stereo not given), for which the concentration at half-maximal activity (AC50) was 5.01 µM [falling, full curve] under setting [1] and 5.62 µM [falling, full curve, poor fit] under setting [2]. Turning to `CN(C)c1ccc(-c2noc(C3CCN(S(=O)(=O)c4cccc(Cl)c4)CC3)n2)cc1`, under setting [2], the AC50 was 20 µM [rising, single point].

On to `COc1ccc(CN2C(=O)CCCc3ccccc32)cc1`, for which, under setting [1], the AC50 is 0.0224 µM [rising, full curve].

Consider `COc1ccccc1N(CC(=O)N(c1ccccc1)C(C)C)S(=O)(=O)c1cccs1`, for which the half-maximal activity concentration (AC50) under setting [1] is 0.0398 µM [falling, full curve]. Still for that read-out and setting: in the case of `CCS(=O)(=O)Nc1cc(OC)c(OC)cc1Cc1nccc2cc(OC)c(OC)cc12` it was 0.282 µM [falling, full curve, poor fit]. As for `COc1cccc(Cn2c(=O)c(-c3ccc(F)cc3)nc3cnc(N4CCNCC4)nc32)c1`, the concentration at half-maximal activity (AC50) was 22.4 µM [falling, partial curve] under setting [1] and 25.1 µM [falling, partial curve] under setting [2]. With `COC(=O)c1scc(-c2ccc(C)cc2)c1S(=O)(=O)N1CCN(c2cccc(Cl)c2)CC1`, under setting [2], the concentration at half-maximal activity (AC50) was 2.51 µM [rising, partial curve, poor fit]. Consider `COc1ccc(-n2c(=O)c(-c3cn(C)c4ccccc34)nc3cnc(N4CCOCC4)nc32)cc1`, for which the AC50 runs as follows: under setting [1], 14.1 µM [falling, single point]; under setting [2], 17.8 µM [falling, partial curve]. On to `COCCNCC(=O)N1CCCCCC1`, for which the AC50 under setting [2] is 0.126 µM [rising, full curve]. Consider `CC(=O)/C(=C/c1ccc(N(C)C)cc1)C(=O)c1ccccc1`, for which, under setting [2], the AC50 is 14.1 µM [rising, single point]. The same measure, in the same setting: then `Cc1sc(N(C(=O)CCc2ccccc2)c2ccc(C(=O)O)cc2)nc1-c1ccccc1`, with 35.5 µM [rising, single point]. As to `Cc1c(C(=O)Nc2c(F)cccc2F)sc2ncn(Cc3ccccc3F)c(=O)c12`, the concentration at half-maximal activity (AC50) under setting [1] was 6.31 µM [falling, partial curve, poor fit]. For the compound `C=COCCNC(=S)Nc1ccccc1`, the AC50 under setting [2] was 17.8 µM [falling, single point]. On to `Cc1ccccc1OCC(=O)OCC(=O)Nc1ccc(N2CCOCC2)cc1`, for which the AC50 under setting [1] is 0.794 µM [falling, full curve, poor fit].

With `CCc1ccc(C(=O)NC(C(=O)NCC2CCCO2)C(C)C)cc1` (stereo not given), under setting [1], the AC50 was 10 µM [rising, partial curve, poor fit].

`COc1ccc(S(=O)(=O)N(CC(=O)Nc2ccc(Br)cc2)Cc2ccccc2)cc1`: the AC50 reads like this: under setting [1], 12.6 µM [falling, partial curve]; under setting [2], 8.91 µM [falling, full curve]. Regarding `Cc1nc2ccc(NC(=O)COc3ccccc3F)cc2s1`, the concentration at half-maximal activity (AC50) under setting [1] was 0.891 µM [rising, full curve, poor fit]. `NCC12CC3CC(C1)CC(c1ccc(Cl)cc1)(C3)C2`: the half-maximal activity concentration (AC50) was 11.2 µM [falling, single point] under setting [1] and 25.1 µM [falling, single point] under setting [2]. As to `O=C(c1ccc(S(=O)(=O)c2ccc(F)cc2)c([N+](=O)[O-])c1)N1CCCCCC1`, under setting [2], the AC50 was 3.16 µM [falling, single point]. Regarding `CCN(CC)CCN(C(=O)CCOc1ccccc1)c1nc2ccc(F)cc2s1`, the AC50 under setting [1] was 0.112 µM [rising, partial curve]. The same measure, in the same setting: in the case of `C[N+]1(CC(O)COCC2COc3ccccc3O2)CCOCC1` (stereo not given) it was 0.01 µM [rising, full curve, poor fit]. For `NC(=O)c1c(-c2ccc(Cl)cc2Cl)csc1NC(=O)Cc1ccccc1`, the AC50 is 6.31 µM [rising, full curve, poor fit] under setting [1] and 2.82 µM [rising, full curve] under setting [2]. On to `N#Cc1cc(C(=O)c2cc(Cl)ccc2O)cn(CC2CCCO2)c1=O` (stereo not given), for which the half-maximal activity concentration (AC50) runs as follows: under setting [1], 0.141 µM [rising, full curve, poor fit]; under setting [2], 35.5 µM [rising, single point]. Consider `Cc1cnc(C(=O)OCC(=O)Nc2ccc(C)c(S(=O)(=O)N3CCCCCC3)c2)cn1`, for which, under setting [1], the half-maximal activity concentration (AC50) is 5.62 µM [falling, partial curve, poor fit]. With `Cc1cc([N+](=O)[O-])nn1CCCC(=O)Nc1ccc(Cl)cc1Cl`, the AC50 is, setting by setting: under setting [1], 0.501 µM [rising, full curve, poor fit]; under setting [2], 0.447 µM [rising, full curve, poor fit]. With `O=C(c1ccc(Cl)cc1)c1nnc(-c2ccncc2)o1`, the half-maximal activity concentration (AC50) under setting [2] was 22.4 µM [rising, partial curve, poor fit]. `CC(C)OC(=O)/C(=C\c1cccnc1)NC(=O)c1ccccc1`: the AC50 reads like this: under setting [1], 0.355 µM [falling, full curve, poor fit]; under setting [2], 5.62 µM [falling, partial curve, poor fit]. As for `COc1cc(-c2nn3c(Cc4ccccc4)nnc3s2)cc(OC)c1OC`, the AC50 under setting [2] was 17.8 µM [rising, partial curve]. With `COCCn1c(SCC(=O)NNC(=O)c2ccccc2)nc2ccccc2c1=O`, under setting [2], the AC50 was 12.6 µM [rising, single point]. Same read-out and setting: then `COC(=O)c1sccc1NC(=S)Nc1cc(OC)ccc1OC`, with 6.31 µM [falling, single point]. The same measure, in the same setting: in the case of `Cc1cc(=O)c(C(=O)O)cn1-c1ccc(C(C)C)cc1` it was 20 µM [falling, partial curve]. `COc1ccc(/C(N)=N/OC(=O)Cc2ccc(OC)c(OC)c2)cc1`: the AC50 reads like this: under setting [1], 6.31 µM [rising, full curve]; under setting [2], 7.08 µM [rising, full curve]. Regarding `Fc1ccc(-c2nc(-c3cccs3)[nH]c2-c2ccc(F)cc2)cc1`, the concentration at half-maximal activity (AC50) under setting [2] is 14.1 µM [rising, partial curve]. On the same count and under the same terms, then `CN(c1ccccc1)S(=O)(=O)c1cccc(NC(=O)CSc2nncn2C)c1`, with 0.0891 µM [rising, full curve]. In the case of `O=C(NCC(c1cccnc1)N1CCc2ccccc21)c1ccc(Cl)cc1` (stereo not given), the AC50 reads like this: under setting [1], 10 µM [rising, partial curve, poor fit]; under setting [2], 5.01 µM [rising, partial curve].

The AC50 is the midpoint of the concentration-response curve, whichever way the signal moves.

Values taken from PubChem BioAssay AID1487 (National Center for Advancing Translational Sciences (NCATS), 2009).
